For this assay, the target named is T1, FtsZ of S. coelicolor, C-terminal His-tag fusion (Streptomyces coelicolor) (UniProt P45500).
T1 sequence: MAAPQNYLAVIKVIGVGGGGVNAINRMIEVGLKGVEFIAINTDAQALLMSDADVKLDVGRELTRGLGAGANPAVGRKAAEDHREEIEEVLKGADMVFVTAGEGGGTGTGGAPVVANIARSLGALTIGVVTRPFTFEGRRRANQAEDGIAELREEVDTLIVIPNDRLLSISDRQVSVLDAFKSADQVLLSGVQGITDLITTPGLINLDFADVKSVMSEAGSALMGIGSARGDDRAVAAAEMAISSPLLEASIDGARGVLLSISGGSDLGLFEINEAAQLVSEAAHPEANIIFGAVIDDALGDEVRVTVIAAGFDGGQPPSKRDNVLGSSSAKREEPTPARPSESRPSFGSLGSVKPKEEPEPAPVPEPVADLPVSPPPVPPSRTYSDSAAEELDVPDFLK
Kind of assay: co-sedimentation.

No constants are given. Whether binding was seen depends on the method and setting. Some binding calls cover weakened binding; strength is not graded here. Sequences can lack the tags named with a protein.

With “C-terminally truncated SsgB of S. coelicolor (SsgBΔC, 1-114 aa), His6-tagged (from UniProt Q9L268 1-114) (domain or fragment)”, the binding entry is given as “binds”.
